Experimental data published in publication PMC8315076.
No constants are given. Whether binding was seen depends on the method and setting. Binding seen in cells or lysates may run through a third protein. Some entries that bind do so weakly or less than the wild type.

By UniProt entry, the sequences of proteins in these tests, tags left out.
UniProt Q15717: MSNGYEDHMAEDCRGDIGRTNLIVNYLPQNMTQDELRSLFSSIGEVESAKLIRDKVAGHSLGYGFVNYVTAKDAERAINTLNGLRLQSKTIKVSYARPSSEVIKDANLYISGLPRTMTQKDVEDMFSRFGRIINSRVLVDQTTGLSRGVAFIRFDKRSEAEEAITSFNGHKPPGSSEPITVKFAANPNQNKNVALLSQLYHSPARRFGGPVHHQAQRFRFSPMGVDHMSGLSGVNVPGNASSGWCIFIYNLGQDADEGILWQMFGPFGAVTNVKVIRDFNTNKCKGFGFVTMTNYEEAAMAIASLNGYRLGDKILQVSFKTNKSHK

Biological target: ELAV like RNA-binding protein 1 (ELAVL1) (human (endogenous in PC3)) (UniProt Q15717)
Test: co-IP; lysates of PCa cells (control or METTL3 knockdown by sh-METTL3) immunoprecipitated with anti-ELAVL1, blots probed with anti-USP4

binding: binds
B1: USP4 (enzyme, UniProt Q13107 1-963)
chain: MAEGGGCRERPDAETQKSELGPLMRTTLQRGAQWYLIDSRWFKQWKKYVGFDSWDMYNVGEHNLFPGPIDNSGLFSDPESQTLKEHLIDELDYVLVPTEAWNKLLNWYGCVEGQQPIVRKVVEHGLFVKHCKVEVYLLELKLCENSDPTNVLSCHFSKADTIATIEKEMRKLFNIPAERETRLWNKYMSNTYEQLSKLDNTVQDAGLYQGQVLVIEPQNEDGTWPRQTLQSKSSTAPSRNFTTSPKSSASPYSSVSASLIANGDSTSTCGMHSSGVSRGGSGFSASYNCQEPPSSHIQPGLCGLGNLGNTCFMNSALQCLSNTAPLTDYFLKDEYEAEINRDNPLGMKGEIAEAYAELIKQMWSGRDAHVAPRMFKTQVGRFAPQFSGYQQQDSQELLAFLLDGLHEDLNRVKKKPYLELKDANGRPDAVVAKEAWENHRLRNDSVIVDTFHGLFKSTLVCPECAKVSVTFDPFCYLTLPLPLKKDRVMEVFLVPADPHCRPTQYRVTVPLMGAVSDLCEALSRLSGIAAENMVVADVYNHRFHKIFQMDEGLNHIMPRDDIFVYEVCSTSVDGSECVTLPVYFRERKSRPSSTSSASALYGQPLLLSVPKHKLTLESLYQAVCDRISRYVKQPLPDEFGSSPLEPGACNGSRNSCEGEDEEEMEHQEEGKEQLSETEGSGEDEPGNDPSETTQKKIKGQPCPKRLFTFSLVNSYGTADINSLAADGKLLKLNSRSTLAMDWDSETRRLYYDEQESEAYEKHVSMLQPQKKKKTTVALRDCIELFTTMETLGEHDPWYCPNCKKHQQATKKFDLWSLPKILVVHLKRFSYNRYWRDKLDTVVEFPIRGLNMSEFVCNLSARPYVYDLIAVSNHYGAMGVGHYTAYAKNKLNGKWYYFDDSNVSLASEDQIVTKAAYVLFYQRRDDEFYKTPSLSSSGSSDGGTRPSSSQQGFGDDEACSMDTN
